Test results: patent publication US20240360242A1 (KISOJI BIOTECHNOLOGY, published 2024)
Results are given in words; binding and its absence hold for the method and conditions named. Some results given as binding are weak or reduced against the parent protein; the word gives no strength.

What was measured:
Experiment in all cases: flow cytometry, 100 nM antibody, transiently transfected HEK cells, APC anti-human Fc
[1] = biological target: T1, HEK-TROP2 Δ27-73 (human, UniProt P09758)
T1 construct: deletion of residues 27-73, transiently expressed on HEK cells
T1 sequence (membrane protein on transfected HEK cells, looked up): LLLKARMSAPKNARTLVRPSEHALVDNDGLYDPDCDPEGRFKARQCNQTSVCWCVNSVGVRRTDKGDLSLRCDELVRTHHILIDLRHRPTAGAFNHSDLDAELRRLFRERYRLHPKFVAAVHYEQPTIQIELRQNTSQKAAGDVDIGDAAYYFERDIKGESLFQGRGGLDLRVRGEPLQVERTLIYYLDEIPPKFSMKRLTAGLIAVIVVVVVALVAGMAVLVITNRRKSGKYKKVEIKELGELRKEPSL
Experimental: (§1) To determine the effect of TROP2 truncations on the binding ability of anti-TROP2 sdAbs, the HEK parental cells were transiently transfected with human TROP2 mutants by lipofectamine. 24 hours after transfection, cells were collected and stained with anti-TROP2 antibodies (FIG. 13A and FIG. 13B). In brief, 1×10⁵ cells were incubated with an Fc receptor blocking antibody (1/100 dilution) for 10 minutes at room temperature. Anti-TROP2 antibodies were diluted in FACS staining buffer to 100 nM and added and incubated with cells for 30 minutes on ice. After washing three times with FACS staining buffer, APC-conjugated secondary antibodies recognizing the human Fc region (Biolegend, Cat #410712) were mixed with cells. After staining for 30 minutes, cells were washed three times, followed by resuspension into 100 μL of 7-Amino-Actinomycin D (7-AAD) solution (BD Biosciences, Cat #559925).

[2] = biological target: T2, HEK-TROP2 Δ27-66 (human, UniProt P09758)
T2 construct: deletion of residues 27-66, transiently expressed on HEK cells
T2 sequence (membrane protein on transfected HEK cells, looked up): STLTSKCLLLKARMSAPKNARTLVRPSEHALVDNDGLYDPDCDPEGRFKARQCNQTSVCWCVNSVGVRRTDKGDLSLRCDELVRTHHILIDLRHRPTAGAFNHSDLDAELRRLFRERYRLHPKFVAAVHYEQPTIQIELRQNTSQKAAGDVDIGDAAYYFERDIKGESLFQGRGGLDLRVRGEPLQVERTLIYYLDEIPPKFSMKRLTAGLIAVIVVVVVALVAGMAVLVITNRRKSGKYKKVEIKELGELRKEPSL
Experimental: as §1

[3] = biological target: T3, HEK-TROP2 Δ27-114 (human, UniProt P09758)
T3 construct: deletion of residues 27-114, transiently expressed on HEK cells
T3 sequence (membrane protein on transfected HEK cells, looked up): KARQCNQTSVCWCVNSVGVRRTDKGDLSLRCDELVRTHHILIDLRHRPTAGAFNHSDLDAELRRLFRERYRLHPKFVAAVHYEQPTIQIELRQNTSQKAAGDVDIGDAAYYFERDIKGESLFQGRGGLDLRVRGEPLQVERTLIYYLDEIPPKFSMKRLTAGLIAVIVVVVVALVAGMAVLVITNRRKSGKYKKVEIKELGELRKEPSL
Experimental: as §1

[4] = biological target: T4, HEK-TROP2 Δ27-146 (human, UniProt P09758)
T4 construct: deletion of residues 27-146, transiently expressed on HEK cells
T4 sequence (membrane protein on transfected HEK cells, looked up): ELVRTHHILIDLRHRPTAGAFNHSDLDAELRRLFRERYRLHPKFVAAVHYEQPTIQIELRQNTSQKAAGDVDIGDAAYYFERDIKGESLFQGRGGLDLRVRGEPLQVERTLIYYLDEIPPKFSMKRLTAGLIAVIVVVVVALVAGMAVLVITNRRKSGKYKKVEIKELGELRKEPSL
Experimental: as §1

[5] = biological target: T5, HEK-TROP2 Δ27-85 (human, UniProt P09758)
T5 construct: deletion of residues 27-85, transiently expressed on HEK cells
T5 sequence (membrane protein on transfected HEK cells, looked up): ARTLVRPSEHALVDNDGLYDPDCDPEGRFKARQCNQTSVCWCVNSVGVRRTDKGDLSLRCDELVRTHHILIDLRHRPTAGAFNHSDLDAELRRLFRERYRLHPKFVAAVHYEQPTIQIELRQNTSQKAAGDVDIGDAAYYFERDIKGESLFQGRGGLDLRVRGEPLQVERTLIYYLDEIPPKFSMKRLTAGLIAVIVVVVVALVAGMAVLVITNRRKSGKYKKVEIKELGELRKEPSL
Experimental: as §1

[6] = biological target: T6, HEK-TROP2 Δ27-104 (human, UniProt P09758)
T6 sequence (membrane protein on transfected HEK cells, looked up): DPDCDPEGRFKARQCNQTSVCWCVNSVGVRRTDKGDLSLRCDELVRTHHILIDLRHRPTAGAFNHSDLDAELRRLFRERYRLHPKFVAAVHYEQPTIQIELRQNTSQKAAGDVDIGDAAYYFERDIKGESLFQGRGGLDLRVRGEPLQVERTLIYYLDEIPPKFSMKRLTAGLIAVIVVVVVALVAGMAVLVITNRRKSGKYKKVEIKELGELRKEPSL
Experimental: as §1

[7] = biological target: T7, HEK-TROP2 Δ27-126 (human, UniProt P09758)
T7 construct: deletion of residues 27-126, transiently expressed on HEK cells
T7 sequence (membrane protein on transfected HEK cells, looked up): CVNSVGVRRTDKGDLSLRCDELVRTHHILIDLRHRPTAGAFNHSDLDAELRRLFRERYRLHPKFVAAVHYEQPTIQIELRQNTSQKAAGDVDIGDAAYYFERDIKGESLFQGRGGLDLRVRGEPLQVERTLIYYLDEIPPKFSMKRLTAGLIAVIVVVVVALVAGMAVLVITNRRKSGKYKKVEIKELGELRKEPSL
Experimental: as §1

[8] = biological target: T8, HEK-TROP2 Δ27-96 (human, UniProt P09758)
T8 construct: deletion of residues 27-96, transiently expressed on HEK cells
T8 sequence (membrane protein on transfected HEK cells, looked up): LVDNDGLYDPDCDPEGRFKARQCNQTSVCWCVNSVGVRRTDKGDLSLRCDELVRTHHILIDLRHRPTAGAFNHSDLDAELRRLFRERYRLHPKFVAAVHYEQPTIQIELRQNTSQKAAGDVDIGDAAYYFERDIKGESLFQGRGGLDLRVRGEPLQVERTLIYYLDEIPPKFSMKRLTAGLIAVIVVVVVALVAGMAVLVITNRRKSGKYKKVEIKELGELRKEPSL
Experimental: as §1

Measured: binding

B1: KD006 (antibody, human IgG1, V domains shown)
VH: QVQLQESGGGLVQAGNSLRLSCVASVRTFSTKAMGWFRQAPGKEREFTAAISESGSTYYADSVKDRFTISRDNVKNTVYLQMNSLKPEDTAVYYCGVKWYSGSFDDTRSYDYWGQGTQVTVSS
notes: also called anti-TROP2 sdAb KD006
binds: [1] | [2] | [3] | [4] | [5] | [6] | [7] | [8]
